Where a chain is given by its changes, count along the chain named. These are yes or no findings as the source states them, for the method shown. Some entries that bind do so weakly or less than the wild type.
What was measured:
[1] = molecular target: T1, polypeptide of SEQ ID NO: 37, a partial sequence peptide in the CAPRIN-1 protein (human); assay: ELISA, CHO-K1 supernatant on immobilised peptide
T1 sequence (peptide): PPVNEPETLKQQNQYQAS

[2] = molecular target: dog CAPRIN-1 in dog tissues (dog); assay: immunohistochemical staining of frozen dog breast cancer tissue
[3] = molecular target: dog CAPRIN-1 in dog tissues (dog); assay: immunohistochemical staining of frozen normal dog tissue sections, 10 ug/ml antibody
[4] = molecular target: dog CAPRIN-1 in dog tissues (dog); assay: immunohistochemical staining of frozen normal dog tissue sections

Measured: binding

B1: human-chicken chimeric antibody #1 (antibody, V domains shown)
VH: AVTLDESGGGLQTPGGALSLVCKASGFTFSGYDMLWVRQAPGKGLEWVAGIGSTGGGTDYGAAVKGRATISRDNGQSTVRLQLNNLRAEDTATYYCAKVAGGCNSGYCRDSPGSIDAWGHGTEVIVS
VL: AVTQQPASVSANPGETVKITCSGGGSRNYYGWYQQKSPGSVPVTVIYYDDQRPSNIPSRFSGALSGSTSTLTITGVQADDEAVYFCGSADSNTYEGSFGAGTTLTVL
binds: [1] | [2] | [3]

B2: human-chicken chimeric antibody #2 (antibody, V domains shown)
VH: B1 VH
VL: B1 VL with Q5P
binds: [4] | [1] | [2]

— patent publication US20130071398A1
